In patent US10071130B2, “Methods and compositions related to Hsp90 inhibitors and breast cancer” (The University of Chicago, priority 2013, dated 2018):
At least one structure is not confirmed: it was looked up by name or label, or the drawing left a doubt.

System: GR target gene transcripts (SGK1 and MKP1/DUSP1)
Experiment: qRT-PCR of GR target gene transcripts in TNBC cell lines
Assay type: cell-based
Details: 100 nM dexamethasone for 2 hours
Procedure: TNBC cell lines were pre-treated for 2 hours with dexamethasone (100 nM) followed by ganetespib (50 nM). Protein and transcript levels were analyzed using Western blot and qRT-PCR respectively.
This induction was reduced following ganetespib (50 nM) treatment.

In the case of C[C@@H]1C[C@H]2[C@@H]3CCC4=CC(=O)C=C[C@]4(C)[C@@]3(F)[C@@H](O)C[C@]2(C)[C@@]1(O)C(=O)CO [dexamethasone], the “GR target gene transcripts (SGK1 and MKP1/DUSP1) expression” value is reported as “induced”.
